Construct, isoform or probe ends are uncertain for at least one entry. A negative result means that nothing was seen under these conditions. Tags and fusion partners may be left off the protein sequences shown.
Biological target: T1, MdWRKY40 (Malus domestica) (UniProt A0A7S5ATZ6)
T1 sequence (looked up, limits assumed): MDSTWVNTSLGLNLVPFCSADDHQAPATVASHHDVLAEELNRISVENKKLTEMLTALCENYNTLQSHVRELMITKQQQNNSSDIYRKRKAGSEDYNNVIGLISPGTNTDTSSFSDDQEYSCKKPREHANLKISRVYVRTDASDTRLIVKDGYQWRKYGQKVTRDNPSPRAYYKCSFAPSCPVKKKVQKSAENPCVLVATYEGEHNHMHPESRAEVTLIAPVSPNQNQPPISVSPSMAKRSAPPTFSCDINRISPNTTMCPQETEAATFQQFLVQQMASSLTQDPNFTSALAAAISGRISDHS
Assay: EMSA
Conditions: EMSA: binding buffer not specified, 24 °C, 30 min; salt and pH not stated; recombinant protein; protein details: His tag, pET-32a(+) fusion

## GATTCCGTCCGACCTACTATTTGACCCTCCGACCTTTTCCAAGTCA / TGACTTGGAAAGGTCGGAGGGTCAAATAGTAGGTCGGACGGAATC [proMdGLU W-box 1 probe]
  binding result: no binding
